From article PMC11742886
Results are given in words; binding and its absence hold for the method and conditions named. In cells and extracts the contact can be indirect. Some entries that bind do so weakly or less than the wild type.

Protein sequences, listed by entry. Tags and fused reporters are not part of them. Residues count along the entry.
UniProt Q15836: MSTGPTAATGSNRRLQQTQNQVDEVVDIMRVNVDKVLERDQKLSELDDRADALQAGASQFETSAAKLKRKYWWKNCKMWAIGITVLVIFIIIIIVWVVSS
UniProt Q9BXW4, residues 1-126: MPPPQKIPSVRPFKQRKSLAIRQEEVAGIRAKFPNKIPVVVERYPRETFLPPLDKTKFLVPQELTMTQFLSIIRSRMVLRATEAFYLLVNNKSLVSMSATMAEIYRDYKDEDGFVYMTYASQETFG

Molecular target: Flag-VAMP3 (Vesicle-associated membrane protein-3) (UniProt Q15836)
Assay: co-IP; AGS cells cotransfected with Flag-VAMP3 plasmid and Myc-LC3C or Myc-LC3B plasmid; RIPA lysis buffer (weak) with protease inhibitors, antibodies on Protein A/G magnetic beads, 4 °C overnight, washed with PBST; which protein was precipitated is not told

Myc-LC3C (from UniProt Q9BXW4 1-126) was tested, and the binding was “binds”.
